Measured values from US12617779B2, “Self degradation-type CDK9 inhibitor prodrug and liposome encapsulating same” (Sumitomo Pharma Co., Ltd., priority 2021, dated 2026).
Where a name gives a salt, the structure may show the parent alone. Some of these results come from one statement about several compounds together.

Assays:
[1] = Stability evaluation of liposome formulation under storage conditions (Experimental Example 5); type: physicochemical; conditions: 5° C.
Protocol: For Example 1, Example 2, Example 5, Example 6, Example 7, Example 8, Comparative Example 7 and Comparative Example 9, the storage stability of liposome formulation was evaluated by the following method.
For the liposome formulations of Example 1, Example 2, Example 5, Example 6, Example 7, Example 8, Comparative Example 7, and Comparative Example 9, the liposome outer solution was replaced with 10% sucrose solution or 10 mM tartrate buffer solution/10% sucrose solution (pH 4) using Sephadex G-25 column (PD-10, manufactured by GE Healthcare) or a dialysis cassette (Slide-A-Lyzer G2 Dialysis Cassettes 20K MWCO, manufactured by Thermo Scientific) to remove unencapsulated compound. The liposome formulation was filtered through a 0.22 μm membrane filter, and stored at 5° C. After 0 to 18 months, the Alvocidib content in the liposome formulations of Example 1, Example 2, Example 5, Example 6, Example 7, Example 8, Comparative Example 7 and Comparative Example 9 was determined by HPLC.
The HPLC measurement conditions are as follows.

[2] = Stability evaluation of solution formulation (Experimental Example 2); type: physicochemical; conditions: solution formulation pH 5, 5° C., after 4 weeks
Protocol: For Example 1, Example 2, Example 5, Example 6, Comparative Example 13 and Comparative Example 14, the attrition rate of the test compound and the conversion rate of the test compound to Alvocidib in a solution formulation were calculated by the following method.
Example 1, Example 2, Example 5, Example 6, Comparative Example 13 and Comparative Example 14 were each added to buffer solutions adjusted to pH 3.0, 4.0 and 5.0, respectively, at a concentration of 0.1 mg/mL, and left at 5° C. After 0, 1, 2 and 4 weeks, the residual rates of the compounds of Example 1, Example 2, […], Comparative Example 13 and Comparative Example 14 and the production rate of Alvocidib were determined by HPLC.
The buffer solutions used at each pH are as follows. • pH 3.0: 5 mM tartrate buffer solution/10% sucrose solution (pH 3.0) • pH 4.0: 5 mM tartrate buffer solution/10% sucrose solution (pH 4.0) • pH 5.0: 5 mM tartrate buffer solution/10% sucrose solution (pH 5.0)
The measurement conditions for HPLC are as follows.
• column: Acquity UPLC BEH C18, 1.7 um, 50×2.1 mm • column temperature: 40° C. • mobile phase: • A: water containing 0.1% trifluoroacetic acid • B: acetonitrile • A/B (min): • 80/20(0)→75/25(3)→0/100(3.5)→0/100(4)→80/20(4.01)→80/20(5) • flow rate: 0.8 mL/min • detection: ultraviolet visible detector, measurement wavelength 254 nm • injection: 3 μL

Structure (SMILES) | Period over which the liposome formulation was stable [1] [months] | production rate of Alvocidib / converted to Alvocidib [2] [%]
CCN(C[C@@H]1CCCCN1)C(=O)Oc1cc(O)c2c(=O)cc(-c3ccccc3Cl)oc2c1[C@H]1CCN(C)C[C@H]1O [Example 1, 2-(2-chlorophenyl)-5-hydroxy-8-[(3S,4R)-3-hydroxy-1-methylpiperidin-4-yl]-4-oxo-4H-1-benzopyran-7-yl ethyl{[(2S)-piperidin-2-yl]methyl}carbamate ditrifluoroacetate] | ≥ 3 | ≤ 5
CCN(C[C@H]1CCCCN1)C(=O)Oc1cc(O)c2c(=O)cc(-c3ccccc3Cl)oc2c1[C@H]1CCN(C)C[C@H]1O [Example 2, 2-(2-chlorophenyl)-5-hydroxy-8-[(3S,4R)-3-hydroxy-1-methylpiperidin-4-yl]-4-oxo-4H-1-benzopyran-7-yl ethyl{[(2R)-piperidin-2-yl]methyl}carbamate] | ≥ 3 | ≤ 5
CCCN(C[C@@H]1CCCCN1)C(=O)Oc1cc(O)c2c(=O)cc(-c3ccccc3Cl)oc2c1[C@H]1CCN(C)C[C@H]1O [Example 5, 2-(2-chlorophenyl)-5-hydroxy-8-[(3S,4R)-3-hydroxy-1-methylpiperidin-4-yl]-4-oxo-4H-1-benzopyran-7-yl {[(2S)-piperidin-2-yl]methyl}propylcarbamate] | ≥ 3 | ≤ 5
CCCN(C[C@H]1CCCCN1)C(=O)Oc1cc(O)c2c(=O)cc(-c3ccccc3Cl)oc2c1[C@H]1CCN(C)C[C@H]1O [Example 6, 2-(2-chlorophenyl)-5-hydroxy-8-[(3S,4R)-3-hydroxy-1-methylpiperidin-4-yl]-4-oxo-4H-1-benzopyran-7-yl {[(2R)-piperidin-2-yl]methyl}propylcarbamate] | ≥ 3 | ≤ 5
CCN(CC1CCCCN1)C(=O)Oc1cc(O)c2c(=O)cc(-c3ccccc3Cl)oc2c1[C@H]1CCN(C)C[C@H]1O (stereo partly drawn) [Example 7, 2-(2-chlorophenyl)-5-hydroxy-8-[(3S,4R)-3-hydroxy-1-methylpiperidin-4-yl]-4-oxo-4H-1-benzopyran-7-yl ethyl[(piperidin-2-yl)methyl]carbamate dihydrochloride] | ≥ 3 | 
CN1CC[C@H](c2c(OC(=O)N(C)CC3CCCCN3)cc(O)c3c(=O)cc(-c4ccccc4Cl)oc23)[C@H](O)C1 (stereo partly drawn) [Example 8, 2-(2-chlorophenyl)-5-hydroxy-8-[(3S,4R)-3-hydroxy-1-methylpiperidin-4-yl]-4-oxo-4H-1-benzopyran-7-yl methyl[(piperidin-2-yl)methyl]carbamate] | ≥ 3 | 
